Results reported in PubChem BioAssay AID504467 (National Center for Advancing Translational Sciences (NCATS), 2011).
Hit rate of the full screen: of about 330,000 compounds, about 7,700 (2.3%) were called active. The inconclusive results got no clear call from the source; some entries with a clear call stand among them for comparison. The call rests on the fitted dose curve; in most records, active means well fitted inhibition curve with a large enough effect; inconclusive means small, poorly fitted or top-dose-only effect, or effect the other way; inactive means flat fitted curve, though single readings scatter. Potencies beside an inconclusive call are fits to weak or partial responses and may not hold up.

assay: qHTS screen for small molecules that inhibit ELG1-dependent DNA repair in human embryonic kidney (HEK293T) cells expressing luciferase-tagged ELG1; details: HEK293T ELG1-luciferase reporter, luminescence, 16 h, DNA damage induced by 5-fluorouridine; series mostly up to 46.1 µM; further: nearly all actives have a fitted effect of over 55% in size
Procedure, shortened: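 Luminescence from the luciferase reporter, measured 30 min after ONE-Glo reagent at room temperature, was the read-out. Beforehand, 2,000 cells per well were exposed for 16 hr at 37 °C to 5-fluorouridine together with compound or vehicle.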
Potency means the concentration at half of the fitted maximal effect.

Row | Compound | Potency
1 | Cn1c(-c2sccc2OCc2cccc(C(F)(F)F)c2)n[nH]c1=S | active: 23.1 µM
2 | O=C(O)c1ccccc1-c1ccccc1C(=O)NCc1ccccc1Cl | inactive
3 | Cc1ccc(NC(=O)COC(=O)c2ccc(C)c(S(=O)(=O)N3CCOCC3)c2)cc1 | inactive
4 | CCN1CCN(C(=O)/C=C/c2ccc3c(c2)OCO3)CC1 | inconclusive: 20.6 µM [activator, single point]
5 | Cc1ccc(-n2c(O)c(/C=N/Nc3ccc(S(=O)(=O)N4CCOCC4)cc3[N+](=O)[O-])c3ccccc3c2=O)c(C)c1 | inconclusive: 14.6 µM [inhibitor, partial curve]
6 | C=CCn1c(SCC(=O)Nc2ccc3c(c2)OCO3)nnc1-c1ccccc1O | inconclusive: 23.1 µM [inhibitor, single point]
7 | O=C(/C=C/c1ccc(Cl)cc1)N1CCOCC1 | inconclusive: 9.2 µM [activator, partial curve]
8 | Oc1oc(-c2ccccc2)nc1/C=N/c1nccs1 | inconclusive: 13 µM [activator, partial curve]
9 | O=C1c2oc3ccc(Cl)cc3c(=O)c2C(c2cccnc2)N1Cc1ccco1 (centres undefined) | inactive
10 | CN(CC(=O)N1CCN(c2ccccc2F)CC1)S(=O)(=O)c1cnc[nH]1 | inactive
11 | Cc1noc(/C=C/Nc2ccc(F)cc2F)c1[N+](=O)[O-] | inconclusive: 7.3 µM [activator, partial curve]
12 | CCOC(=O)N/C(N)=N/c1nc2ccccc2s1 | inconclusive: 5.17 µM [activator, partial curve]
13 | COc1ccc(-c2nnc(NC(=O)C3CCCO3)s2)cc1 (centres undefined) | inconclusive: 16.4 µM [activator, partial curve]
14 | CC(C)CNC(=O)c1cccc(NC(=O)COc2cccc([N+](=O)[O-])c2)c1 | inconclusive: 23.1 µM [inhibitor, single point]
15 | COc1ccc(C(=O)C2CCN(C(=S)NCCc3ccc(OC)c(OC)c3)CC2)cc1 | active: 20.6 µM
16 | O=C(c1ccco1)N1CCN(C(=O)N2c3ccccc3Sc3ccccc32)CC1 | inconclusive: 0.411 µM [inhibitor, partial curve, poor fit]
17 | CC1Cc2ccccc2N1Cc1cccc([N+](=O)[O-])c1 (centres undefined) | inactive
18 | Cc1cccc(C(=O)O/N=C(\N)c2cccc([N+](=O)[O-])c2)c1 | inconclusive: 16.4 µM [activator, partial curve]
19 | COC(=O)c1ccc(N2CCOCC2)c(NC(=O)c2ccc3c(c2)OCO3)c1 | inconclusive: 20.6 µM [inhibitor, partial curve, poor fit]
20 | Cc1oc2cc3oc(=O)c(CCC(=O)NCCCN4CCOCC4)c(C)c3cc2c1C | inconclusive: 29.1 µM [activator, single point]
21 | COCc1nnc(NC(=O)CCC2CCCCC2)s1 | inconclusive: 20.6 µM [activator, partial curve, poor fit]
22 | C[C@@H]1CN([C@@H](C)CO)C(=O)c2cc(NC(=O)Nc3ccc(F)cc3)ccc2O[C@@H]1CN(C)Cc1ccc(Oc2ccccc2)cc1 | inactive
23 | CCOC(=O)C1CCC2(CC1)C(C#N)=C(N)Oc1n[nH]c(C)c12 (centres undefined) | inactive

2 successive records out of the list so far:
Row | Compound | Potency
18 | Cc1cccc(C(=O)O/N=C(\N)c2cccc([N+](=O)[O-])c2)c1 | inconclusive: 16.4 µM [activator, partial curve]
19 | COC(=O)c1ccc(N2CCOCC2)c(NC(=O)c2ccc3c(c2)OCO3)c1 | inconclusive: 20.6 µM [inhibitor, partial curve, poor fit]

Next structures follow:

Row | Compound | Potency
24 | COc1cccc(N2CCN(C(=O)c3ccccc3SCC(=O)NCc3ccco3)CC2)c1 | inconclusive: 25.1 µM [inhibitor, single point]
25 | Cc1cccc(NC(=S)N2CCC(NC(=O)C3CCCCC3)CC2)c1 | inactive
26 | COc1ccc(CNC(=O)COC(=O)c2nc3nc(C)cc(C)n3n2)cc1 | inactive
27 | C[N+]1(C2CCC3CCCC2C3O)CCCCC1 (centres undefined) | inactive
28 | N/C(=N/O)C(c1ccccc1)c1ccccc1 | inconclusive: 18.4 µM [activator, single point]
29 | Cc1ccc(Sc2cc(Cl)nc(N)n2)cc1 | inconclusive: 25.9 µM [activator, single point]
30 | O=C(c1cccc(F)c1)N1CCN(C(=O)c2cc3ncc(Br)cn3n2)CC1 | inactive
32 | O=C(CCn1cccn1)Nc1ccc(-c2ccno2)cc1 | inconclusive: 18.3 µM [activator, partial curve]
33 | Cc1ccc(CNC(=O)C2CCCN(S(=O)(=O)N3CC(C)CC(C)C3)C2)cc1 (centres undefined) | inactive
34 | C#CCOCCOCCOCCNc1nc(N2CCOCC2)nc(N2CCN(C(=O)[C@H](Cc3cc4ccccc4[nH]3)n3cc([C@@H](N)C(C)CC)nn3)CC2)n1 (some centres undefined) | inactive
35 | Cc1c2c(nc3ccccc13)CCC(C(C)(C)C)C2 (centres undefined) | inconclusive: 16.4 µM [activator, partial curve]
36 | CC1CCCC(NC(=O)CCCn2c(=S)[nH]c3ccccc3c2=O)C1C (centres undefined) | inconclusive: 18.3 µM [inhibitor, single point]
37 | COc1ccc(N2C(=O)CC(N3CCC(O)(c4cccc(C(F)(F)F)c4)CC3)C2=O)cc1 (centres undefined) | inconclusive: 23.1 µM [inhibitor, single point]
38 | CC(C)CNC(=O)c1c2c(nc3ccccc13)-c1ccccc1CC2 | inconclusive: 3.16 µM [inhibitor, partial curve, poor fit]
39 | COc1cc(OC)c(C(=O)Nc2ccncc2)cc1OC | inactive
40 | c1ccc(N2CCN(Cc3ccnc4ccccc34)CC2)cc1 | inconclusive: 6.51 µM [inhibitor, partial curve]
41 | CCCCOc1ccc(C(=O)Nc2cc(C)c(OCC(=O)N3CCOCC3)c(C)c2)cc1 | inconclusive: 23.1 µM [inhibitor, single point]
42 | COc1ccc(-c2nc(SCc3ccccc3)n(S(C)(=O)=O)n2)cc1 | inconclusive: 18.4 µM [activator, partial curve]
43 | COc1ccc2nc(NC(=O)C3CCN(C(=O)c4ccc(F)cc4)CC3)sc2c1 | inconclusive: 25.9 µM [inhibitor, partial curve, poor fit]
44 | Cn1c(NC(=O)c2cccs2)c(-c2cccs2)c(=O)c2ccccc21 | inactive
45 | O=C(NCc1ccco1)c1cc(Cl)nc(Cl)c1 | inactive
46 | C[C@H]1CN([C@@H](C)CO)C(=O)Cc2cc(NC(=O)CCC(F)(F)F)ccc2O[C@H]1CN(C)S(=O)(=O)c1ccc(Cl)cc1 | inconclusive: 0.82 µM [inhibitor, single point]

Row | Compound | Potency
47 | COc1ccc(NC(=S)Nc2ccc3nsnc3c2)cc1 | inactive
48 | c1ccc(COn2nnc3ccccc32)c(COn2nnc3ccccc32)c1 | inconclusive: 20.6 µM [inhibitor, partial curve, poor fit]
49 | CCCNc1cc(=S)nc(N)[nH]1 | inconclusive: 32.6 µM [inhibitor, single point]
50 | O=C(NCCCn1ccnc1)c1nn2c(C(F)(F)F)cc(-c3ccc(Br)cc3)nc2c1Cl | inconclusive: 29.1 µM [inhibitor, single point]
51 | COc1cccc(C(=O)NCC(=O)N2CCC(C)CC2)c1 | inconclusive: 4.11 µM [activator, single point]
52 | O=C(Nc1ccccc1C(=O)NC(Cc1ccccc1)C(=O)NC1CCCCC1)c1ccccc1 (centres undefined) | inconclusive: 23.1 µM [inhibitor, partial curve]
53 | COc1ccc(-c2csc(Nc3ncccc3C)n2)cc1 | inconclusive: 2.59 µM [activator, partial curve]
54 | Cn1c2ccc(F)cc2c2ncn(CCCN(CCO)CCO)c(=O)c21 | inconclusive: 29.1 µM [activator, single point]
55 | O=C(CN1CCN(Cc2ccccc2Cl)CC1)N/N=C/C=C\c1ccccc1[N+](=O)[O-] | inconclusive: 23.1 µM [inhibitor, single point]
56 | O=C(NNc1cccc(Cl)n1)c1ccccc1CC[N+](=O)[O-] | inactive
57 | COc1ccc(CN2C(=O)CS(=O)CC2=O)cc1OC | inconclusive: 23.1 µM [activator, single point]
58 | O=C1C(=O)N(CCN2CCOCC2)C(c2ccc(Cl)cc2)/C1=C(/O)c1ccc(S(=O)(=O)N2CCOCC2)cc1 (centres undefined) | inactive
59 | COc1ccc(CNC(=O)COC(=O)c2cc(-c3cccs3)nc3ccccc23)cc1OC | inconclusive: 29.1 µM [inhibitor, single point]
60 | CC(C(=O)NC1CCCC1)N(Cc1ccc2c(c1)OCO2)C(=O)c1snc(C(N)=O)c1N (centres undefined) | inconclusive: 2.06 µM [inhibitor, partial curve, poor fit]
61 | CN(C)C(=O)CN1CCN(C(=O)CCl)CC1 | inconclusive: 29.1 µM [activator, single point]
62 | COc1cc(CNCCc2ccccc2)ccc1OCc1ccc(Cl)nc1 | inactive
63 | Cc1ccccc1-n1ncc2c1CC(C)(C)CC2NC(=O)C1CCC1 (centres undefined) | inconclusive: 20.6 µM [activator, single point]
64 | CCC(=O)NC(c1ccc(OC)c(OC)c1)c1cc(Cl)c2cccnc2c1O (centres undefined) | inconclusive: 6.51 µM [inhibitor, single point]
65 | C=C(C)Cn1c(C2CC(=O)N(Cc3ccccc3)C2)nc2ccccc21 (centres undefined) | inactive
66 | O=C(Cc1n[nH]c(=O)c2ccccc12)OCC(=O)c1ccc(F)cc1 | inactive
67 | COc1ccc(/C=C(\NC(=O)c2cccs2)C(=O)NCc2ccco2)cc1OC | inactive
68 | Cc1nnc2sc(-c3ccc(N(C)C)cc3)nn2c1=O | inconclusive: 14.6 µM [activator, partial curve]
69 | CCc1ccc(NC(=O)c2cc(C)on2)cc1 | inconclusive: 1.84 µM [activator, full curve]

A few values from the results shown.
Entry for `CN(C)C(=O)CN1CCN(C(=O)CCl)CC1` under Potency: inconclusive: 29.1 µM [activator, single point]
Entry for `c1ccc(COn2nnc3ccccc32)c(COn2nnc3ccccc32)c1` under Potency: inconclusive: 20.6 µM [inhibitor, partial curve, poor fit]
